Drawing on PMC4914967, “An evolutionarily conserved SSNA1/DIP13 homologue is a component of both basal and apical complexes of Toxoplasma gondii” (Scientific Reports, 2016), this text covers binding for 1 molecule.

In the test the target is His-tagged recombinant TgDIP13 (Toxoplasma gondii SSNA1/DIP13 homologue) (Toxoplasma gondii). Description: negative-stain transmission electron microscopy; purified recombinant TgDIP13 at 10 mg/ml in 6 M urea buffer, diluted 1:10 in 30 mM MOPS pH 7.0 or 0.1 M acetate buffer pH 3.5, incubated 24 hours at 37 °C, diluted to 0.1 mg/ml, stained with 1% uranyl acetate; self-assembly seemed favored at neutral over acidic pH; both purified.

These are yes or no findings as the source states them, for the method shown. Some results given as binding are weak or reduced against the parent protein; the word gives no strength.

B1: His-tagged recombinant TgDIP13 (Toxoplasma gondii SSNA1/DIP13 homologue) (natural protein, UniProt A0A125YRV3 1-150, looked up)
chain: MTSTTNSNLHNYNHELVACIDDLRRKREEVHRQIIKEEEDRAKVQKEIALLQERLQKLNDSITRKIQARNEYDKTILETEAAYTKILESAQTLLHVLKRESVHLGRKTSGDRAELPGIGITGVGVDYSPNSVSELSHRRAEKGKPTAGAG
notes: TgDIP13, the SSNA1/DIP13 homologue of Toxoplasma gondii (ToxoDB entry TGME49_295450); the TgDIP13 gene was amplified from T. gondii cDNA with primers ML2448/ML2449 and cloned NdeI/XhoI into pET24a+; Apparent mass of the monomer ~18 kDa; also called T. gondii SSNA1/DIP13 homologue; not shown: His6, C-terminal, kept
B1: the binding result is “binds”.
